Source: article PMC9088311, “Cyclic Thiosulfonates for Thiol-Mediated Uptake: Cascade Exchangers, Transporters, Inhibitors” (JACS Au, 2022)

System: HeLa Kyoto cells
Experiment: Relative viability (HOE/PI) in HCHT screening
Protocol: One advantage of HCHT imaging of cellular uptake compared to flow cytometry[38],[42],[43] is that it simultaneously gives information on toxicity and intracellular localization. […] Information on the intracellular localization of reporters can be quantified through segmentation of cellular compartments stained with specific markers.[52]
Uptake inhibition was measured by the automated HCHT imaging used already to elaborate on cytosolic delivery. For inhibitor screening, HK cells in multiwell plates were incubated with increasing concentrations of inhibitors, followed by fluorescent transporters 28, 31, and 32 at a constant concentration. […] If inhibitors are removed before the addition of transporters 28, 31, and 32, the method is referred to as “pre-incubation”. This is of interest to minimize exchange between the transporter and the inhibitor but is often problematic because dynamic covalent exchange between the inhibitor and cellular target can also be reversed and thus lost. The complementary “co-incubation” operates without inhibitor removal before the addition of transporters 28, 31, and 32.
Relative cell viability ( RV) for each condition in the presence of inhibitors was calculated […]
of the relative cell viability ( RVrel) to the concentration of inhibitors ( cinhibitor ) was plotted and fitted with Equation (S19) to retrieve the concentration causing 50% cell growth inhibition (RV50) value and the Hill coefficient ( n).

[1] = with transporter 28, pre-incubation (P)

Compound	n (RV50), Hill coefficient for cell viability [1]	other results
CC(C)(C)[Si](C)(C)O[C@@H]1CS(=O)(=O)SC[C@@H]1O [Compound 6]	–	n (RV50), Hill coefficient for cell viability (with transporter 31, co-incubation (C)): 8 ± 3
O=S1(=O)C=C[C@@H](O)CS1 [Compound 12]	–	n (RV50), Hill coefficient for cell viability (with transporter 28, co-incubation (C)): 1.1 ± 0.4
CC(C)(C)[Si](C)(C)O[C@H]1CS(=O)(=O)SC[C@H]1OC(=O)NCCNC(=O)CC(O)(CC(=O)NCCNC(=O)O[C@H]1CSS(=O)(=O)C[C@H]1O[Si](C)(C)C(C)(C)C)C(=O)NCCNC(=O)O[C@@H]1CSS(=O)(=O)C[C@@H]1O[Si](C)(C)C(C)(C)C (some centres unmarked) [Compound 42]	2.0 ± 0.5	–
CCCNC(=O)O[C@H]1CSS(=O)(=O)C[C@H]1O[Si](C)(C)C(C)(C)C [Compound 43]	2.6 ± 0.7	–
C#CCNC(=O)CC[C@H](NC(=O)COCCNC(=O)O[C@H]1CSS(=O)(=O)C[C@H]1O[Si](C)(C)C(C)(C)C)C(=O)NCCOCCNC(=O)O[C@H]1CSS(=O)(=O)C[C@H]1O[Si](C)(C)C(C)(C)C [Compound 44]	3.7 ± 0.9	–
